Measured values published in PubChem BioAssay AID2685 (National Center for Advancing Translational Sciences (NCATS), 2010).
The whole screen tested about 320,000 compounds, of which about 2,100 (0.66%) were called active. The call rests on the fitted dose curve; in most records, active means well fitted inhibition curve with a large enough effect in the signal ratio, with a control signal flat (not every such curve was filed as active); inconclusive means small, poorly fitted or top-dose-only effect, or effect the other way, or a change in a side signal; inactive means flat fitted curve, though single readings scatter; the % refers to the signal ratio. Inconclusive results, whose numbers are uncertain, are shown. A potency beside an inconclusive call is a rough fit, not a confirmed value.

assay: qHTS Assay for Lipid Storage Modulators in Drosophila S3 Cells; conditions: BODIPY lipid droplet fluorescence, 18-24 h, cells fed with added oleic acid; lipid storage change, negative = inhibition: at 46.1 µM (top of the series) unless noted
Summary of the method: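 Drosophila S3 cells loaded with oleic acid (400 uM, as added) and compounds at several concentrations; lipid droplets imaged by 488-nm laser-scanning cytometry, 500–530 nm intensity and object ratio to cell channel. Percent activity normalized to 20 uM Triacsin C.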
On the % scale 0 is the no-effect control and ±100 the full control effect; potency means the concentration at half of the fitted maximal effect.

Lipid storage change, negative = inhibition, inconclusive:
O=C(O)C1CSC(CCc2ccccc2)N1 (stereo not given) -0.952%
COc1cccc(CNC(=O)C2CCN(S(=O)(=O)c3ccc4c(c3)OCCO4)CC2)c1 16.7%
CC1CCCCN1Cc1c(C#N)c2ccccc2n1C (stereo not given) 2.22%
Cc1cc(C(F)(F)F)n2nc(C(=O)O)c(Cl)c2n1 2.88%
COc1ccc(NC(=O)/C(C#N)=C/c2ccc(-c3ccccc3C(=O)O)o2)cc1 7.26%
CCCNC(=O)c1cc(-c2ccc(Br)cc2)on1 24.2%
CC(=O)Oc1ccc(C(=O)Nc2cccc(C(=O)Nc3ccccc3C(=O)O)c2)cc1 15.9%
CCCNS(=O)(=O)c1ccc(OCC(=O)N2CCCC2)cc1 -5.74%
CC1C(=O)OC(c2ccc(Cl)cc2)C(C)(C)C1=O (stereo not given) 23.8%
CCOC(=O)C1CCN(C(=O)c2cc3c(=O)n4ccccc4nc3s2)CC1 -62.9%
Cc1nnc(SCc2ccc(CSc3nnc(C)c(=O)[nH]3)cc2)[nH]c1=O -1.28%

5 entries already listed, sorted by heavy-atom count, falling:
Lipid storage change, negative = inhibition, inconclusive:
COc1cccc(CNC(=O)C2CCN(S(=O)(=O)c3ccc4c(c3)OCCO4)CC2)c1 16.7%
COc1ccc(NC(=O)/C(C#N)=C/c2ccc(-c3ccccc3C(=O)O)o2)cc1 7.26%
CCOC(=O)C1CCN(C(=O)c2cc3c(=O)n4ccccc4nc3s2)CC1 -62.9%
CC1CCCCN1Cc1c(C#N)c2ccccc2n1C (stereo not given) 2.22%
CCCNC(=O)c1cc(-c2ccc(Br)cc2)on1 24.2%

Following part:

Potency, inconclusive:
Nc1nonc1-n1nnc(C(=O)N/N=C/c2ccccc2Cl)c1CN1CCOCC1 1.16 µM [activator, single point]
Cc1c(Cl)cnc(NC(=O)CSc2n[nH]c(N)n2)c1Cl 0.146 µM [falling, full curve]
Cc1c2cnn(CC(=O)O)c(=O)c2c(C)n1Cc1ccccc1 0.146 µM [falling, full curve, poor fit]
COc1cc(/C=C/c2cc(C(F)(F)F)[nH]c(=O)n2)cc(OC)c1OC 29.1 µM [falling, single point]
CN(C(=O)C(Cl)Cl)c1ccc(OC(=O)c2ccco2)cc1 29.1 µM [falling, single point]
CCCCCn1c(CN2CCN(c3cccc(Cl)c3)CC2)nc2c1c(=O)[nH]c(=O)n2C 29.1 µM [activator, single point]
CC(C)c1ccc(/C=C(\c2nc3ccccc3[nH]2)S(=O)(=O)c2ccccc2)cc1 20.6 µM [falling, single point]
Cc1cccc(NC(=S)Nc2cccc(C(F)(F)F)c2)n1 2.06 µM [activator, partial curve, poor fit]
Cc1nnc(SCC(=O)Nc2cc(-c3cc(C)c(C)cc3C)nn2-c2ccccc2)s1 29.1 µM [falling, single point]
